# Reference: the supplement of paper PMC8728848
# The list shows a part of the results.
# B1: PEB1 (Campylobacter jejuni), Q0P9X8 (protein)
# chain: MVFRKSLLKLAVFALGACVAFSNANAAEGKLESIKSKGQLIVGVKNDVPHYALLDQATGEIKGFEVDVAKLLAKSILGDDKKIKLVAVNAKTRGPLLDNGSVDAVIATFTITPERKRIYNFSEPYYQDAIGLLVLKEKKYKSLADMKGANIGVAQAATTKKAIGEAAKKIGIDVKFSEFPDYPSIKAALDAKRVDAFSVDKSILLGYVDDKSEILPDSFEPQSYGIVTKKDDPAFAKYVDDFVKEHKNEIDALAKKWGL
# Legend:
# Experiment in all cases: glycan array binding signal (z-score within array); higher = stronger binding
# Conditions in all cases: glycan notation: IUPAC condensed, linker removed
# [1] = target: Neu5Ac(a2-3)Gal(b1-4)GlcNAc
# In short: (§1)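 The binding signal is a Z-score computed within each array and averaged over linkers. Arrays of the same protein sequence at different concentrations or buffers were also averaged together. Data originate from 3228 arrays in the Consortium for Functional Glycomics database, kept only where the protein sequence was available.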
# [2] = target: Neu5Ac(a2-3)Gal(b1-4)GlcNAc(b1-2)Man(a1-3)[GlcNAc(b1-2)Man(b1-4)GlcNAc(b1-2)Man(a1-6)]Man(b1-4)GlcNAc(b1-4)GlcNAc
# In short: as §1
# [3] = target: Neu5Ac(a2-3)Gal(b1-4)GlcNAc(b1-2)Man(a1-3)[Neu5Ac(a2-6)Gal(b1-4)GlcNAc(b1-2)Man(a1-6)]Man(b1-4)GlcNAc(b1-4)GlcNAc
# In short: as §1
# [4] = target: Neu5Ac(a2-3)Gal(b1-4)GlcNAc(b1-3)Gal(b1-3)GlcNAc
# In short: as §1
# [5] = target: Neu5Ac(a2-3)Gal(b1-4)GlcNAc(b1-3)Gal(b1-4)GlcNAc
# In short: as §1
# [6] = target: Neu5Ac(a2-3)Gal(b1-4)GlcNAc(b1-3)Gal(b1-4)GlcNAc(b1-3)Gal(b1-4)GlcNAc
# In short: as §1
# [7] = target: Neu5Ac(a2-3)Gal(b1-4)GlcNAc(b1-3)Gal(b1-4)[Fuc(a1-3)]GlcNAc
# In short: as §1
# [8] = target: Neu5Ac(a2-3)Gal(b1-4)GlcNAc(b1-3)GalNAc
# In short: as §1
# [9] = target: Neu5Ac(a2-3)Gal(b1-4)GlcNAc(b1-6)[Gal(b1-3)]GalNAc
# In short: as §1
# [10] = target: Neu5Ac(a2-3)Gal(b1-4)GlcNAc(b1-6)[Neu5Ac(a2-3)Gal(b1-3)]GalNAc
# In short: as §1
# [11] = target: Neu5Ac(a2-3)Gal(b1-4)GlcNAc6S
# In short: as §1
# [12] = target: Neu5Ac(a2-3)Gal(b1-4)[Fuc(a1-3)]GlcNAc
# In short: as §1
# [13] = target: Neu5Ac(a2-3)Gal(b1-4)[Fuc(a1-3)]GlcNAc(b1-3)Gal
# In short: as §1
# [14] = target: Neu5Ac(a2-3)Gal(b1-4)[Fuc(a1-3)]GlcNAc(b1-3)Gal(b1-4)GlcNAc
# In short: as §1
# [15] = target: Neu5Ac(a2-3)Gal(b1-4)[Fuc(a1-3)]GlcNAc(b1-3)Gal(b1-4)[Fuc(a1-3)]GlcNAc(b1-3)Gal(b1-4)[Fuc(a1-3)]GlcNAc
# In short: as §1
# [16] = target: Neu5Ac(a2-3)Gal(b1-4)[Fuc(a1-3)]GlcNAc(b1-3)GalNAc
# In short: as §1
# [17] = target: Neu5Ac(a2-3)Gal(b1-4)[Fuc(a1-3)]GlcNAc(b1-6)[Gal(b1-3)]GalNAc
# In short: as §1
# [18] = target: Neu5Ac(a2-3)Gal(b1-4)[Fuc(a1-3)]GlcNAc(b1-6)[Neu5Ac(a2-3)Gal(b1-3)]GalNAc
# In short: as §1
# [19] = target: Neu5Ac(a2-3)Gal(b1-4)[Fuc(a1-3)]GlcNAc6S
# In short: as §1
# [20] = target: Neu5Ac(a2-3)Gal6S(b1-4)GlcNAc
# In short: as §1
# [21] = target: Neu5Ac(a2-3)Gal6S(b1-4)[Fuc(a1-3)]GlcNAc
# In short: as §1
# [22] = target: Neu5Ac(a2-3)GalNAc
# In short: as §1
# [23] = target: Neu5Ac(a2-3)GalNAc(b1-4)GlcNAc
# In short: as §1
# [24] = target: Neu5Ac(a2-3)[GalNAc(b1-4)]Gal(b1-4)Glc
# In short: as §1
# [25] = target: Neu5Ac(a2-3)[GalNAc(b1-4)]Gal(b1-4)GlcNAc
# In short: as §1
# [26] = target: Neu5Ac(a2-3)[GalNAc(b1-4)]Gal(b1-4)GlcNAc(b1-3)GalNAc
# In short: as §1
# [27] = target: Neu5Ac(a2-3)[Neu5Ac(a2-6)]GalNAc
# In short: as §1
# [28] = target: Neu5Ac(a2-6)Gal
# In short: as §1
# [29] = target: Neu5Ac(a2-6)Gal(b1-4)Glc
# In short: as §1
# [30] = target: Neu5Ac(a2-6)Gal(b1-4)GlcNAc
# In short: as §1
# [31] = target: Neu5Ac(a2-6)Gal(b1-4)GlcNAc(b1-2)Man(a1-3)Man(b1-4)GlcNAc(b1-4)GlcNAc
# In short: as §1
# [32] = target: Neu5Ac(a2-6)Gal(b1-4)GlcNAc(b1-2)Man(a1-3)[Gal(b1-4)GlcNAc(b1-2)Man(a1-6)]Man(b1-4)GlcNAc(b1-4)GlcNAc
# In short: as §1
# [33] = target: Neu5Ac(a2-6)Gal(b1-4)GlcNAc(b1-2)Man(a1-3)[GlcNAc(b1-2)Man(a1-6)]Man(b1-4)GlcNAc(b1-4)GlcNAc
# In short: as §1
# [34] = target: Neu5Ac(a2-6)Gal(b1-4)GlcNAc(b1-2)Man(a1-3)[GlcNAc(b1-2)Man(b1-4)GlcNAc(b1-2)Man(a1-6)]Man(b1-4)GlcNAc(b1-4)GlcNAc
# In short: as §1
# [35] = target: Neu5Ac(a2-6)Gal(b1-4)GlcNAc(b1-2)Man(a1-3)[Man(a1-6)]Man(b1-4)GlcNAc(b1-4)GlcNAc
# In short: as §1
binder,measurement,setting,value
B1,glycan array binding signal (z-score),[1],-0.717
same,glycan array binding signal (z-score),[2],1.14
same,glycan array binding signal (z-score),[3],0.159
same,glycan array binding signal (z-score),[4],-1.47
same,glycan array binding signal (z-score),[5],0.401
same,glycan array binding signal (z-score),[6],-0.364
same,glycan array binding signal (z-score),[7],-0.941
same,glycan array binding signal (z-score),[8],-0.182
same,glycan array binding signal (z-score),[9],-0.101
same,glycan array binding signal (z-score),[10],0.229
same,glycan array binding signal (z-score),[11],-0.243
same,glycan array binding signal (z-score),[12],0.017
same,glycan array binding signal (z-score),[13],-0.603
same,glycan array binding signal (z-score),[14],3.14
same,glycan array binding signal (z-score),[15],-1.09
same,glycan array binding signal (z-score),[16],8.24
same,glycan array binding signal (z-score),[17],0.995
same,glycan array binding signal (z-score),[18],3.1
same,glycan array binding signal (z-score),[19],-0.345
same,glycan array binding signal (z-score),[20],0.114
same,glycan array binding signal (z-score),[21],0.533
same,glycan array binding signal (z-score),[22],-0.404
same,glycan array binding signal (z-score),[23],-0.108
same,glycan array binding signal (z-score),[24],1.22
same,glycan array binding signal (z-score),[25],-0.934
same,glycan array binding signal (z-score),[26],-0.77
same,glycan array binding signal (z-score),[27],-0.361
same,glycan array binding signal (z-score),[28],1.7
same,glycan array binding signal (z-score),[29],0.452
same,glycan array binding signal (z-score),[30],-0.292
same,glycan array binding signal (z-score),[31],-0.088
same,glycan array binding signal (z-score),[32],1.62
same,glycan array binding signal (z-score),[33],0.318
same,glycan array binding signal (z-score),[34],0.025
same,glycan array binding signal (z-score),[35],-0.541
